# Test results as given in patent US11071743B1, “Effective, non-toxic treatments for brain cancer” (priority 2015, dated 2021).
# At least one structure is not confirmed: it was looked up by name or label, or the drawing left a doubt.
# What was measured:
# glioblastoma = conditions: combination of temozolomide and radiation; cited from earlier work
# glioblastoma multiforme = experiment: Example Two: treatment of a patient; type: in vivo, human; conditions: surgery, radiation and temozolomide chemotherapy; first 8 months after early diagnosis
# Experimental: A person living in Argentina was diagnosed with glioblastoma multiforme in January of 2014 and was immediately treated with surgery, chemotherapy, and radiation.
# Shortly thereafter, near the middle of October, the patient began receiving the following regimen, alfacalcidol not being available: valganciclovir, 450 mg twice a day melatonin, 12 mg twice a day
# BHT, 700 mg in the morning plus 350 mg at night resveratrol, 175 mg twice a day lycopene, 15 mg once a day
# Honokiol, 250 mg twice a day metformin, 500 mg once a day, and vitamin D3, 2800 IU at night.
# About two weeks later, bio-absorbable curcumin (from the Life Extension Foundation, described above), 400 mg twice a day, was added to the regimen, and circa November 4th, alfacalcidol was added to the regimen (3 micrograms in the morning).
# The supply of alfacalcidol ran out at about that time. At the same time, sugar and other carbohydrate intake was restricted. In February, the dexamethasone dose was cut to 1 and 2 mg in the morning and evening, respectively. […] Alfacalcidol was resumed in April, at a double dose (3 micrograms twice a day) to compensate in part for the previous lapse, at which time the dexamethasone dose was cut to 1 mg twice a day. The tumor continued to show no progression in May, and the alfacalcidol dose was reduced to 2 micrograms twice a day in June, when the metformin dose was raised to […] in the morning. […]
structure (smiles),measurement,setting,value
Cn1nnc2c(C(N)=O)ncn2c1=O [temozolomide],median life expectancy,glioblastoma,about 14 months
same,period of non-progression under conventional therapy,glioblastoma multiforme,no or essentially no period of non-progression
